In article PMC8268705:
Results are given in words; binding and its absence hold for the method and conditions named. Binding seen in cells or lysates may run through a third protein. Some entries that bind do so weakly or less than the wild type. For part of these data: Tags and fused reporters may be left off the sequences shown. Values belong to the molecule of their own block, whether it stands above or below them.

Amino acid sequences for entries named in this document (tags omitted). A change or cut given only in a name is not applied to a line headed by its entry. Chains listed by the source or under a name are the forms on record and can include a tag or linker. Residues count along the entry.
UniProt P48436: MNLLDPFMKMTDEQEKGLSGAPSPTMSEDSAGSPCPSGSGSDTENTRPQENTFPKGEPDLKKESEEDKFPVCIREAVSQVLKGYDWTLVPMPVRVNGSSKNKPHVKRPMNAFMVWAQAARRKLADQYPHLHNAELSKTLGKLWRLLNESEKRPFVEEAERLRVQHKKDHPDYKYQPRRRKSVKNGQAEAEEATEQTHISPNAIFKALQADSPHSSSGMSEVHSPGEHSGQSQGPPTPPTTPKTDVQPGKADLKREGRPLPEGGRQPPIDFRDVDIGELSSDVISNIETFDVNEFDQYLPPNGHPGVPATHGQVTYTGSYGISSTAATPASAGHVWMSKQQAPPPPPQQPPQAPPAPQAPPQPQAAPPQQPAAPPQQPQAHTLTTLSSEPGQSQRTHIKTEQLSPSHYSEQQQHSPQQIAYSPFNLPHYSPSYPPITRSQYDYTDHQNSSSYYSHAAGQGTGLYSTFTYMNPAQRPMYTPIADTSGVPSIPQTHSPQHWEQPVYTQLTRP
GST-fused SOX9 fragment, N-terminal region (105-208): residues 105-208 of P48436

Legend:
[1] = target: T1, GST-fused RIP140 fragment, amino acids 683 to 916 (C-terminal region of RIP140) (UniProt P48552); test: pull-down; purified GST fusion proteins incubated with 35S-labelled cell-free-synthesized proteins overnight at 4 °C in NETN buffer (0.5% NP-40, 1 mM EDTA, 20 mM Tris pH 8, 100 mM NaCl, 10 mM dithiothreitol, protease inhibitors); SDS-PAGE, Phosphorimager; only the target purified
T1 sequence: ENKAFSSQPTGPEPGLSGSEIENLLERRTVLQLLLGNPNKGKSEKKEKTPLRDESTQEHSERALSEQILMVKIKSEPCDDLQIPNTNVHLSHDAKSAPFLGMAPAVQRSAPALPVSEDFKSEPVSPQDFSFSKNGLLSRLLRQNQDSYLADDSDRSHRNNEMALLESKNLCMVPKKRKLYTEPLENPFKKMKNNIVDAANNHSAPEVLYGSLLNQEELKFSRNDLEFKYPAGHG

[2] = target: SOX9, endogenous in SW480 cells (human (endogenous in SW480)) (UniProt P48436); test: proximity ligation; Duolink in situ PLA in fixed, permeabilised SW480 cells with primary anti-RIP140 and anti-SOX9 antibodies; signal only when the probes are within 40 nm
[3] = target: GST-fused SOX9 fragment, N-terminal region (105-208) (UniProt P48436); test: pull-down; purified GST fusion proteins incubated with 35S-labelled cell-free-synthesized proteins overnight at 4 °C in NETN buffer (0.5% NP-40, 1 mM EDTA, 20 mM Tris pH 8, 100 mM NaCl, 10 mM dithiothreitol, protease inhibitors); SDS-PAGE, Phosphorimager; only the target purified

binding [1]: binds
Molecule: in vitro translated 35S-labeled SOX9 protein (from UniProt P48436 1-509)

binding [2]: binds
B1: Receptor-Interacting Protein of 140 kDa (RIP140), endogenous in SW480 cells (protein, UniProt P48552 1-1158)
chain: MTHGEELGSDVHQDSIVLTYLEGLLMHQAAGGSGTAVDKKSAGHNEEDQNFNISGSAFPTCQSNGPVLNTHTYQGSGMLHLKKARLLQSSEDWNAAKRKRLSDSIMNLNVKKEALLAGMVDSVPKGKQDSTLLASLLQSFSSRLQTVALSQQIRQSLKEQGYALSHDSLKVEKDLRCYGVASSHLKTLLKKSKVKDQKPDTNLPDVTKNLIRDRFAESPHHVGQSGTKVMSEPLSCAARLQAVASMVEKRASPATSPKPSVACSQLALLLSSEAHLQQYSREHALKTQNANQAASERLAAMARLQENGQKDVGSYQLPKGMSSHLNGQARTSSSKLMASKSSATVFQNPMGIIPSSPKNAGYKNSLERNNIKQAANNSLLLHLLKSQTIPKPMNGHSHSERGSIFEESSTPTTIDEYSDNNPSFTDDSSGDESSYSNCVPIDLSCKHRTEKSESDQPVSLDNFTQSLLNTWDPKVPDVDIKEDQDTSKNSKLNSHQKVTLLQLLLGHKNEENVEKNTSPQGVHNDVSKFNTQNYARTSVIESPSTNRTTPVSTPPLLTSSKAGSPINLSQHSLVIKWNSPPYVCSTQSEKLTNTASNHSMDLTKSKDPPGEKPAQNEGAQNSATFSASKLLQNLAQCGMQSSMSVEEQRPSKQLLTGNTDKPIGMIDRLNSPLLSNKTNAVEENKAFSSQPTGPEPGLSGSEIENLLERRTVLQLLLGNPNKGKSEKKEKTPLRDESTQEHSERALSEQILMVKIKSEPCDDLQIPNTNVHLSHDAKSAPFLGMAPAVQRSAPALPVSEDFKSEPVSPQDFSFSKNGLLSRLLRQNQDSYLADDSDRSHRNNEMALLESKNLCMVPKKRKLYTEPLENPFKKMKNNIVDAANNHSAPEVLYGSLLNQEELKFSRNDLEFKYPAGHGSASESEHRSWARESKSFNVLKQLLLSENCVRDLSPHRSNSVADSKKKGHKNNVTNSKPEFSISSLNGLMYSSTQPSSCMDNRTFSYPGVVKTPVSPTFPEHLGCAGSRPESGLLNGCSMPSEKGPIKWVITDAEKNEYEKDSPRLTKTNPILYYMLQKGGNSVTSRETQDKDIWREASSAESVSQVTAKEELLPTAETKASFFNLRSPYNSHMGNNASRPHSANGEVYGLLGSVLTIKKESE

binding [3]: binds
B2: in vitro translated 35S-labeled RIP140 (protein, UniProt P48552 1-1158)
chain: B1 chain
modifications: 35S-labelled
